For this assay, the system named is HEK293A TEAD-LUC reporter. In words: TEAD-luciferase reporter activity (YAP activation), robust Z score vs plate; higher = stronger YAP/TEAD activation. The note with it: 24 h.

The structures appear in SMILES notation. Counter-ions that a name gives are not always drawn. The list shows a part of the results. This data set is noisy: repeats of one test often differ as much as different tests do.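 In a drug-repurposing library screen, luminescence reads luciferase driven by eight TEAD-binding elements, stably integrated into human kidney-derived cells. Compounds scoring over five robust Z scores above the plate mean are called hits.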

Consider `CCN1c2ccc(C(c3ccccc3)(c3ccccc3)c3ccccc3)cc2C(C)=CC1(C)C`, for which the TEAD-luciferase reporter activity (compound concentration: 200 nM) is inactive: -0.00982, the TEAD-luciferase reporter activity (compound concentration: 2 uM) is inactive: -0.566 and the TEAD-luciferase reporter activity (compound concentration: 10 uM) is inactive: 4.02.

Take `O=C(O)c1cc(NC(=O)[C@H](Cc2ccccc2F)NC(=O)c2cc3[nH]cnc3cc2C(=O)NCC2CCCCCC2)cc(C(=O)O)c1`: the TEAD-luciferase reporter activity runs as follows: (compound concentration: 200 nM) inactive: -1.48; (compound concentration: 2 uM) inactive: 2.38; (compound concentration: 10 uM) inactive: -0.559.

As to `CC(Oc1ccc2c(c1)Oc1ccccc1S2(=O)=O)C(F)(F)F` (stereo not given), the TEAD-luciferase reporter activity is, setting by setting: (compound concentration: 200 nM) inactive: 0.318; (compound concentration: 2 uM) inactive: 0.91; (compound concentration: 10 uM) inactive: 0.445.

With `CC(=O)NCC(=O)N1Cc2ccccc2CC2(CCCN2CC2CCNCC2)C1` (stereo not given), the TEAD-luciferase reporter activity is, setting by setting: (compound concentration: 200 nM) inactive: 0.654; (compound concentration: 10 uM) inactive: 0.329.

Turning to `O=C(O)C1CCc2cc(OCCn3ccnc3)ccc21` (stereo not given) [Camonagrel hydrochloride], the TEAD-luciferase reporter activity is, setting by setting: (compound concentration: 200 nM) inactive: 0.432; (compound concentration: 2 uM) inactive: -0.575; (compound concentration: 10 uM) inactive: 0.776.

Turning to `COc1cc(-c2nc(NC(=O)c3cc4cc(C)cc(C)c4n3CC(=O)O)sc2CCC2CCCCC2)c(OC)cc1Cl`, the TEAD-luciferase reporter activity (compound concentration: 200 nM) is inactive: -0.0653, the TEAD-luciferase reporter activity (compound concentration: 2 uM) is inactive: -1.3 and the TEAD-luciferase reporter activity (compound concentration: 10 uM) is inactive: -2.1.

In the case of `Cc1noc(C)c1-c1cc(C(O)(c2ccccn2)c2ccccn2)c2nc(C3CC3)[nH]c2c1`, the TEAD-luciferase reporter activity (compound concentration: 200 nM) is active: 7.22, the TEAD-luciferase reporter activity (compound concentration: 2 uM) is active: 10.6 and the TEAD-luciferase reporter activity (compound concentration: 10 uM) is active: 17.9.

For the compound `c1ccc2[nH]ncc2c1` [indazole], where the note is “compound concentration: 2 uM”, the TEAD-luciferase reporter activity is inactive: 0.664.

`c1ccc2[nH]ncc2c1`: the TEAD-luciferase reporter activity is inactive: 0.204 (compound concentration: 200 nM) and inactive: 0.259 (compound concentration: 10 uM).

As to `Cc1nc2c(OCc3c(Cl)ccc(N(C)C(=O)CNC(=O)/C=C/c4ccc(C(=O)N(C)C)cc4)c3Cl)cccn2c1Br`, the TEAD-luciferase reporter activity is, setting by setting: (compound concentration: 200 nM) inactive: -0.257; (compound concentration: 2 uM) inactive: -1.08; (compound concentration: 10 uM) inactive: -1.98.

Consider `COCCC(=O)NC1CCC(CCN2CCN(c3cccc(C#N)c3)CC2)CC1` (stereo not given), for which the TEAD-luciferase reporter activity runs as follows: (compound concentration: 200 nM) inactive: -1.16; (compound concentration: 2 uM) inactive: 0.381; (compound concentration: 10 uM) inactive: 1.69.

Turning to `O=C(Nc1nc(-c2cc(Cl)cs2)c(N2CCN(C3CCCCC3)CC2)s1)c1cnc(N2CCC(C(=O)O)CC2)c(Cl)c1`, the TEAD-luciferase reporter activity (compound concentration: 200 nM) was inactive: -1.25, the TEAD-luciferase reporter activity (compound concentration: 2 uM) is inactive: -0.483 and the TEAD-luciferase reporter activity (compound concentration: 10 uM) is inactive: 0.269.

Consider `Nc1ccc(S(=O)(=O)Nc2ncccn2)cc1`, for which the TEAD-luciferase reporter activity runs as follows: (compound concentration: 200 nM) inactive: 0.707; (compound concentration: 2 uM) inactive: -0.338; (compound concentration: 10 uM) inactive: -0.342.

Turning to `O=C(O)CCNC(=O)C(CS)Cc1ccccc1` (stereo not given), the TEAD-luciferase reporter activity (compound concentration: 200 nM) is inactive: -0.174, the TEAD-luciferase reporter activity (compound concentration: 2 uM) is inactive: -0.72 and the TEAD-luciferase reporter activity (compound concentration: 10 uM) was inactive: 0.978.

On to `O=C(c1ccc(O)c(F)c1)N(c1ccc(O)cc1)c1ccc(F)cc1`, for which the TEAD-luciferase reporter activity (compound concentration: 200 nM) was inactive: -0.52, the TEAD-luciferase reporter activity (compound concentration: 2 uM) is inactive: -1.02 and the TEAD-luciferase reporter activity (compound concentration: 10 uM) is inactive: 0.361.

As for `Cc1cc(OCCCNCC(C)(C)C(N)=O)ccc1Cc1c(O[C@@H]2O[C@H](CO)[C@@H](O)[C@H](O)[C@H]2O)n[nH]c1C(C)C`, the TEAD-luciferase reporter activity reads like this: (compound concentration: 200 nM) inactive: -1.51; (compound concentration: 2 uM) inactive: -1.06; (compound concentration: 10 uM) inactive: -0.237.

As for `CC(C)(C)C(=O)CN1CC2CN(CCCNc3ccc(C#N)cc3)CC(C1)O2`, the TEAD-luciferase reporter activity is, setting by setting: (compound concentration: 200 nM) inactive: 0.116; (compound concentration: 2 uM) inactive: -0.527; (compound concentration: 10 uM) inactive: -1.59.

On to `CCc1ccc(OCc2ccccc2C(=O)Nc2ccc3nc(C)cc(N)c3c2)cc1`, for which the TEAD-luciferase reporter activity is, setting by setting: (compound concentration: 200 nM) inactive: -1.13; (compound concentration: 2 uM) inactive: 0.476; (compound concentration: 10 uM) inactive: 1.73.

For `CCOC(=O)N(c1cccc(C(=O)c2ccccc2)c1)S(=O)(=O)C(F)(F)F`, the TEAD-luciferase reporter activity reads like this: (compound concentration: 200 nM) inactive: -0.69; (compound concentration: 2 uM) inactive: -0.497; (compound concentration: 10 uM) inactive: 4.19.

`CC(O)C(O)C1CNc2nc(N)[nH]c(=O)c2N1` (stereo not given) [Pharmaprojects No. 1815]: the TEAD-luciferase reporter activity is, setting by setting: (compound concentration: 200 nM) inactive: -0.778; (compound concentration: 2 uM) inactive: 0.457; (compound concentration: 10 uM) inactive: 1.16.

Regarding `CCCCCCCCCCCCCCCCOP(=O)(O)OCC[N+](C)(C)C` [Miltefosin], the TEAD-luciferase reporter activity (compound concentration: 10 uM) is inactive: 3.26.

For the compound `C[C@@H](O)[C@H]1C(=O)N2C(C(=O)[O-])=C(SC3Cn4cnc[n+]4C3)[C@H](C)[C@H]12` (stereo not given in full) [Biapenem], the TEAD-luciferase reporter activity runs as follows: (compound concentration: 200 nM) inactive: 1.82; (compound concentration: 10 uM) inactive: 1.7.

Consider `C#CCC(Cc1cnc2nc(N)nc(N)c2n1)c1ccc(C(=O)N[C@@H](CCC(=O)O)C(=O)O)cc1` (stereo not given in full) [Pralatrexate(Folotyn)], for which the TEAD-luciferase reporter activity is inactive: -1.39 (compound concentration: 200 nM) and inactive: 0.436 (compound concentration: 10 uM).

On to `C#CCC(Cc1cnc2nc(N)nc(N)c2n1)c1ccc(C(=O)N[C@@H](CCC(=O)O)C(=O)O)cc1` (stereo not given in full) [Pralatrexate], for which, under “compound concentration: 2 uM”, the TEAD-luciferase reporter activity was inactive: -2.06.

Consider `CN(CCOc1ccc(NS(C)(=O)=O)cc1)CCc1ccc(NS(C)(=O)=O)cc1` [dofetilide], for which the TEAD-luciferase reporter activity (compound concentration: 2 uM) was active: 6.37.

Turning to `CN(CCOc1ccc(NS(C)(=O)=O)cc1)CCc1ccc(NS(C)(=O)=O)cc1`, the TEAD-luciferase reporter activity (compound concentration: 200 nM) was inactive: -1.05 and the TEAD-luciferase reporter activity (compound concentration: 10 uM) is inactive: -0.432.

As for `CCC1(O)C(=O)OCc2c1cc1n(c2=O)Cc2c-1nc1cc(F)c(C)c3c1c2C(N)CC3` (stereo not given) [Exatecan Mesylate], the TEAD-luciferase reporter activity (compound concentration: 200 nM) is inactive: -1.1, the TEAD-luciferase reporter activity (compound concentration: 2 uM) was inactive: -1.45 and the TEAD-luciferase reporter activity (compound concentration: 10 uM) is inactive: -2.14.

On to `O=C(NS(=O)(=O)c1ccc(Cl)cc1)c1ccc(Cl)cc1`, for which the TEAD-luciferase reporter activity is inactive: -0.885 (compound concentration: 200 nM), inactive: -1.04 (compound concentration: 2 uM) and inactive: -1.57 (compound concentration: 10 uM).

Consider `COc1cc(/C=N/NC(=O)CSc2cc(C)nc3ccccc23)cc(OC)c1OC`, for which the TEAD-luciferase reporter activity reads like this: (compound concentration: 200 nM) inactive: 1.48; (compound concentration: 2 uM) inactive: -1.36; (compound concentration: 10 uM) inactive: 0.229.

Regarding `O=c1c2ccccc2ncn1CCOc1ccc(-c2ccc(F)cc2F)cc1` [flubichin methanesulfonate], the TEAD-luciferase reporter activity by setting is: (compound concentration: 200 nM) inactive: -0.078; (compound concentration: 2 uM) inactive: 0.53; (compound concentration: 10 uM) inactive: 0.0955.

Turning to `CCCc1nc(C(C)(C)O)c(C(=O)O)n1Cc1ccc(-c2ccccc2-c2nnn[nH]2)cc1` [Olmesartan], the TEAD-luciferase reporter activity by setting is: (compound concentration: 200 nM) inactive: -0.568; (compound concentration: 2 uM) inactive: -0.197; (compound concentration: 10 uM) inactive: -0.185.

Regarding `Oc1c(I)cc(I)c(O)c1I` [riodoxol], the TEAD-luciferase reporter activity was inactive: -1.13 (compound concentration: 200 nM), inactive: 0.703 (compound concentration: 2 uM) and inactive: -0.859 (compound concentration: 10 uM).

Turning to `CCCc1ccc(NS(=O)(=O)Cc2ccccc2)c(=O)n1CC(=O)NCc1ccccc1`, the TEAD-luciferase reporter activity reads like this: (compound concentration: 200 nM) inactive: -0.623; (compound concentration: 2 uM) inactive: -1.01; (compound concentration: 10 uM) inactive: 0.602.

`N=C(N)NCC1COC2(CCCCC2)O1` (stereo not given) [guanadrel]: the TEAD-luciferase reporter activity by setting is: (compound concentration: 200 nM) inactive: -0.825; (compound concentration: 2 uM) inactive: 1.13; (compound concentration: 10 uM) inactive: -0.169.

Take `CN1CCC(N2CCN(C(=O)[C@H](NC(=O)c3ccc4cc[nH]c4c3)c3ccccc3)CC2)CC1`: the TEAD-luciferase reporter activity is inactive: -0.631 (compound concentration: 200 nM), inactive: 3.13 (compound concentration: 2 uM) and inactive: -0.632 (compound concentration: 10 uM).

As for `O=C(Nc1cc(Oc2cc(F)c(NC(=O)C3(C(=O)Nc4ccc(F)cc4)CC3)cc2F)ccn1)C1CC1` [Altiratinib], the TEAD-luciferase reporter activity is inactive: -0.526 (compound concentration: 200 nM), inactive: 1.8 (compound concentration: 2 uM) and inactive: -2.71 (compound concentration: 10 uM).

Values taken from the supplement of paper PMC10735217.
